Source: article PMC2877100
These are yes or no findings as the source states them, for the method shown. In cells and extracts the contact can be indirect. Some entries that bind do so weakly or less than the wild type.

The chains behind the UniProt entries cited, without tags or fusion partners.
UniProt P18266: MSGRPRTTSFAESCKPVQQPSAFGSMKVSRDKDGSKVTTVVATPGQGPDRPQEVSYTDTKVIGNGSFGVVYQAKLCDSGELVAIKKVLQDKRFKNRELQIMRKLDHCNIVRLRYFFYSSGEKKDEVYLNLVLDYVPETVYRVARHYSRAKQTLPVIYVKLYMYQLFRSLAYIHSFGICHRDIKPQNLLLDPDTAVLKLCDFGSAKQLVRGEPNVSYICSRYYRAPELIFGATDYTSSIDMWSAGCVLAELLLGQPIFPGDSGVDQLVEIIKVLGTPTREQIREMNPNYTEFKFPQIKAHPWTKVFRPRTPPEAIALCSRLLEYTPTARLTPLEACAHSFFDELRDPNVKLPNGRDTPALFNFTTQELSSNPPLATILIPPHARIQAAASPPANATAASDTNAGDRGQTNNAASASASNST
UniProt A0A8I6GM68: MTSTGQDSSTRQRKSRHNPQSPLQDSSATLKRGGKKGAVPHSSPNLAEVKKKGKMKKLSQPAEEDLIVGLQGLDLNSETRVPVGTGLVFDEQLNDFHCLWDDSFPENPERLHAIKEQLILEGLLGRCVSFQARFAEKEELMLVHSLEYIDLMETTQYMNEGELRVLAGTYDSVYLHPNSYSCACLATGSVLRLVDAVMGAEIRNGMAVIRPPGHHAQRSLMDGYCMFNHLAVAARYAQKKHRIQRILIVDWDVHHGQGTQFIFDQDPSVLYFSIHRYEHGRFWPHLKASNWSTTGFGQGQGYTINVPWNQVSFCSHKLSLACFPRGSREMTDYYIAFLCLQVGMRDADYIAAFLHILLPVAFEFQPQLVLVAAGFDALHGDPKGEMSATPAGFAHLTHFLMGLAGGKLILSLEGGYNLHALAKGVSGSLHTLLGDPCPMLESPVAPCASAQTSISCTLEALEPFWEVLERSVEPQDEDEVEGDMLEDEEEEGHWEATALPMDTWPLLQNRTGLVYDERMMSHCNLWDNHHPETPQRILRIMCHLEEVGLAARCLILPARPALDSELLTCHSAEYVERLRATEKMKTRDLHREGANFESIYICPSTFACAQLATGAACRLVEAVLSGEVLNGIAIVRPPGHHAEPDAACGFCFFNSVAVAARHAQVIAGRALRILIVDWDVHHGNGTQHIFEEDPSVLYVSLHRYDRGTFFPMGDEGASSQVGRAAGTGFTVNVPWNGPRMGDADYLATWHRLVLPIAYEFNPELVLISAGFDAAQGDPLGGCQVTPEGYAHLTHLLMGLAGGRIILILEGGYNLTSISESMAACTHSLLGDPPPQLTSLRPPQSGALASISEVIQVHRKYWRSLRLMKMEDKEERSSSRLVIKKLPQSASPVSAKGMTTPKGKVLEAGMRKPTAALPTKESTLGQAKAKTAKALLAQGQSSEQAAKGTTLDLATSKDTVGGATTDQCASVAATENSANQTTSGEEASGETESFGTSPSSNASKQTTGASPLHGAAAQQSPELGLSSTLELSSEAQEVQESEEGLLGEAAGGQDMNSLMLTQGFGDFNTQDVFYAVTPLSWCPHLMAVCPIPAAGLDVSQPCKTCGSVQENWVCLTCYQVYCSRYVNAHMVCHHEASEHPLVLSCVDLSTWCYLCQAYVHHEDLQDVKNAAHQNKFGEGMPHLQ

Target: Glycogen Synthase Kinase 3β (GSK3β) (rat (endogenous in hippocampal neuronal cultures)) (UniProt P18266)
Experiment: co-IP; immunoprecipitation of endogenous GSK3β and of HDAC6 from hippocampal neurons; conditions not described

**Q.** How did the binding turn out when “Histone deacetylase 6 (HDAC6) (from UniProt A0A8I6GM68 1-1183) (enzyme)” was run?
**A.** The binding was “binds”.
